Experimental findings from paper PMC8547044 are described below.

The chains behind the UniProt entries cited, without tags or fusion partners. Where a name states a change or a piece, a line headed by the entry shows the natural chain unless it says otherwise. Residues count along the entry.
UniProt P29279, residues 27-349: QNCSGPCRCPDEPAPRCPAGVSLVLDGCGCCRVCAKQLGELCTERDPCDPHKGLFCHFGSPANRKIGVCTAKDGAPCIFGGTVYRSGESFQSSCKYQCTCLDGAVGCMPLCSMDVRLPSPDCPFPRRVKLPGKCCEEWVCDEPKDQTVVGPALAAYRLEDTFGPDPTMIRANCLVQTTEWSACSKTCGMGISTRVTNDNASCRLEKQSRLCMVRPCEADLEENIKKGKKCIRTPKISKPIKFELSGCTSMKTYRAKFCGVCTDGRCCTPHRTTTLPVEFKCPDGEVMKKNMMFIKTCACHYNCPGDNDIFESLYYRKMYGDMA
UniProt P07355: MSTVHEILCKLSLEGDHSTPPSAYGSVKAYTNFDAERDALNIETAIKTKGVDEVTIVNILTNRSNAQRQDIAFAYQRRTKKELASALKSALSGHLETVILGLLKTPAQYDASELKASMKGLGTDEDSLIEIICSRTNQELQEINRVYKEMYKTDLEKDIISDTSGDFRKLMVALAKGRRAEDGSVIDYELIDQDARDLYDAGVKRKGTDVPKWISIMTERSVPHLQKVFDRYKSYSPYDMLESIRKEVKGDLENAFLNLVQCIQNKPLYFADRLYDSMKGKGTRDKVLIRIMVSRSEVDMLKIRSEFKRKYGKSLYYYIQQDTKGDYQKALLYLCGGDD

No constants are given. Whether binding was seen depends on the method and setting. Binding seen in cells or lysates may run through a third protein. Some binding calls cover weakened binding; strength is not graded here.

The target in experiment [1] is Connective tissue growth factor (CTGF) (human (endogenous in RA FLS)) (UniProt P29279). Put plainly: co-IP; FLS lysates (RIPA buffer with protease inhibitors), anti-CTGF mAb or anti-ANXA2 mAb at 4 °C, protein A agarose beads, washed with PBS, western blot. For orientation: In western blotting, separated proteins are transferred to a membrane and probed.
The target in experiment [2] is Annexin A2 (ANXA2) (human (endogenous in RA FLS)) (UniProt P07355). The experiment is described as above.
The target in experiment [3] is VN (I152L)-ANXA2 (ANXA2-full length in pBiFC-VN155 (I152L)) (human) (UniProt P07355). Put plainly: split reporter; BiFC: pBiFC-VC155 and pBiFC-VN155 (I152L) constructs co-transfected into HEK293T cells, fluorescence microscopy after 48 h.

Regarding “Annexin A2 (ANXA2) (from UniProt P07355 1-339)”, in experiment [1], the binding entry is “binds”. Regarding “Connective tissue growth factor (CTGF) (from UniProt P29279 27-349)”, in experiment [2], the binding entry is “binds”. Take “VC155-CTGF (CTGF-full length in pBiFC-VC155) (from UniProt P29279 27-349)”: the binding entry in experiment [3] is “binds”.
